Results published in patent publication EP0714896A1, “INDOL DERIVATIVES USEFUL FOR THE TREATMENT OF MIGRAINE, COMPOSITION AND UTILIZATION” (VITA-INVEST, S.A., priority 1994, dated 1995).
At least one structure is not confirmed: it was looked up by name or label, or the drawing left a doubt.

Test system: 5HT₁D RECEPTORS
Assay: Binding to specific brain receptors (5HT1D), 3H-5-HT, calf brain caudate nucleus homogenate
Settings: 3H-5-HT with pindolol and mesulergide 1 µM, parameter type and unit not given

## CNS(=O)(=O)Cc1ccc2[nH]cc(CCCNCCN(C)c3ncncc3OC)c2c1 [Example 59, C-[3-(3-{2-[5-methoxy-pyrimidin-4-yl)-methylaminolethylamino}-propyl)-1H-indol-5-yl]-N-methyl-methanesulfonamide.]
  BINDING TESTS TO THE 5HT₁D RECEPTORS: 9.9xE-9
